In paper doi:10.1101/2021.10.12.464121:
No constants are given. Whether binding was seen depends on the method and setting. In cells and extracts the contact can be indirect. Some binding calls cover weakened binding; strength is not graded here. Where a sequence is shown, tags or fusion partners need not be part of it.

Sequences of proteins named here, by UniProt entry; tags and fusion partners are left off. A change or cut given only in a name is not applied to a line headed by its entry. Residues count along the entry.
UniProt P06104, whole entry: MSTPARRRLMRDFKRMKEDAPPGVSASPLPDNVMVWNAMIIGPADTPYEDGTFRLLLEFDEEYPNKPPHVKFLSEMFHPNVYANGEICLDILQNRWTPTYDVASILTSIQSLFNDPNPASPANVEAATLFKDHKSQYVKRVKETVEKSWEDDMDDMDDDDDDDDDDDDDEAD
UniProt P06104, 1-150: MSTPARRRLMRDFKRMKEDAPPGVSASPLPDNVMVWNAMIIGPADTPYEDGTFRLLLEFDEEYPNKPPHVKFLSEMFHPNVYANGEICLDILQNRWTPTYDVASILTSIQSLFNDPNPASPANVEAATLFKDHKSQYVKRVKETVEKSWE
UniProt Q07963, whole entry: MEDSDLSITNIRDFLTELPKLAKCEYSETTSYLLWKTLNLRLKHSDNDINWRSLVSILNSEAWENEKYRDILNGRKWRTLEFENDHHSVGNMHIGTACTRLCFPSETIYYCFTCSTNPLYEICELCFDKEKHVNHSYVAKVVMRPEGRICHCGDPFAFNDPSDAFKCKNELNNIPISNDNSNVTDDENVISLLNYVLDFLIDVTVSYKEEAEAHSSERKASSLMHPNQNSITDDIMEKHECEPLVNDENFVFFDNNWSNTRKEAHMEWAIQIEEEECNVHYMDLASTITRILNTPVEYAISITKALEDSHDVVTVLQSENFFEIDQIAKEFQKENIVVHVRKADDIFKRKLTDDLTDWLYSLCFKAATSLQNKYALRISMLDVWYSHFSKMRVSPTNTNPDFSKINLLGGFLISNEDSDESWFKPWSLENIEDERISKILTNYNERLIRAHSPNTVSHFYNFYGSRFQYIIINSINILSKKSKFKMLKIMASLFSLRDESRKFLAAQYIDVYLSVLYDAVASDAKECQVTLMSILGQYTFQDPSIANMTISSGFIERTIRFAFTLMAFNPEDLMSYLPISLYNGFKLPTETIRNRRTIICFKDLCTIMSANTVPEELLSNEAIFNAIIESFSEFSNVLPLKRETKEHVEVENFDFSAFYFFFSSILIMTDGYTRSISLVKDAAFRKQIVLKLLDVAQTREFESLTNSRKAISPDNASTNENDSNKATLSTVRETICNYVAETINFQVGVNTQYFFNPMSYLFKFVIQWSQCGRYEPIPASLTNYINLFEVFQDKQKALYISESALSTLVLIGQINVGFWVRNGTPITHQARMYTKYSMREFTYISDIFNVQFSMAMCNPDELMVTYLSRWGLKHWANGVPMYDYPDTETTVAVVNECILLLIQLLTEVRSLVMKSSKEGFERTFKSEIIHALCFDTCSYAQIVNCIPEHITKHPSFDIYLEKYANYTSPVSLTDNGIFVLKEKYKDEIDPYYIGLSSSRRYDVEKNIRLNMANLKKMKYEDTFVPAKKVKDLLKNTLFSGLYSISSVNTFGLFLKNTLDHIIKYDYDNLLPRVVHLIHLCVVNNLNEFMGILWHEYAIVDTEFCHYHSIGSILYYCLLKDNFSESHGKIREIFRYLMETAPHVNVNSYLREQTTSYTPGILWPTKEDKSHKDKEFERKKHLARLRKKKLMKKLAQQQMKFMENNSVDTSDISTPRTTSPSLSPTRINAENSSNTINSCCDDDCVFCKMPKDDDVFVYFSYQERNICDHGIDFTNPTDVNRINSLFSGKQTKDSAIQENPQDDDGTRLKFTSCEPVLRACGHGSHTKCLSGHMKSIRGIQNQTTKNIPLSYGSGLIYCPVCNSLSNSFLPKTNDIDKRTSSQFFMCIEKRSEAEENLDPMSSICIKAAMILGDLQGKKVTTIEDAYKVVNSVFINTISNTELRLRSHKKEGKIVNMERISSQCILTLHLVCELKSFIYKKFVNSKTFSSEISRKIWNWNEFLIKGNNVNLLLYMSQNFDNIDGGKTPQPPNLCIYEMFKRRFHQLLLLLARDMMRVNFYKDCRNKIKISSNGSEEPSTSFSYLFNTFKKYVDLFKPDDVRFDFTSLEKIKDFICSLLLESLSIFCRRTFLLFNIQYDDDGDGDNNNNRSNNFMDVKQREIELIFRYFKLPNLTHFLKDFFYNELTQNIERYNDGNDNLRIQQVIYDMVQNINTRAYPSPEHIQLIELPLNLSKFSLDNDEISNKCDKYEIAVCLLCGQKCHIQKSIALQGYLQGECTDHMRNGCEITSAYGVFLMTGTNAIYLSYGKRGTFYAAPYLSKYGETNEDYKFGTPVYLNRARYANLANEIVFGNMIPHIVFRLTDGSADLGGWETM

Key:
[1] = target: Flag epitope-tagged rad6-A126F (Saccharomyces cerevisiae) (UniProt P06104); test: co-IP
[2] = target: Flag epitope-tagged rad6-A126T (Saccharomyces cerevisiae) (UniProt P06104); test: co-IP
[3] = target: Flag epitope-tagged wild-type Rad6 (Saccharomyces cerevisiae) (UniProt P06104); test: co-IP
[4] = target: His6-rad6-A126F (amino acids 1-150) (Saccharomyces cerevisiae) (UniProt P06104); test: pull-down
[5] = target: His6-rad6-A126T (amino acids 1-150) (Saccharomyces cerevisiae) (UniProt P06104); test: pull-down
[6] = target: His6-Rad6 (amino acids 1-150) (Saccharomyces cerevisiae) (UniProt P06104); test: pull-down

Measured: binding

6HA-tagged Ubr2 (from UniProt Q07963 1-1872) (enzyme)
binds: [1] | [2] | [3]

B1: Bre1 Rad6-binding region (amino acids 1-214) (domain or fragment, UniProt Q07457 1-214)
chain: MTAEPATKKIKLELSDPSEPLTQSDVIAFQKEALFRCINRRRVDFEALRKQYELSRRECIDVSRKLANIMALIVTLARFIETFCTDANEKQLCREIAQGDETLIVQRSDSFMKLLTKYGKPNTTDSNTNSNASDHIQELTTELKNLRKSKEELFYENSQLTEEISALKEYYTNIIRKYDRDESFTIKRVFKEDKTDAVKELREDEKESNENNIK
binds: [4] | [5] | [6]

B2: 9Myc-tagged Rad18 (enzyme, UniProt P10862 1-487)
chain: MDHQITTASDFTTTSIPSLYQLDTLLRCHICKDFLKVPVLTPCGHTFCSLCIRTHLNNQPNCPLCLFEFRESLLRSEFLVSEIIQSYTSLRSSLLDALRIPKPTPVPENEEVPGPENSSWIELISESESDSVNAADDDLQIVATSERKLAKRSMTDILPLSSKPSKRNFAMFRSERIKKKSKPNEQMAQCPICQQFYPLKALEKTHLDECLTLQSLGKKPKISTTFPTESNPHNKSSSRFKVRTPEVDKSSCGETSHVDKYLNSMMSAEHQRLPKINFTSMTQSQIKQKLSSLGLSTNGTRQNMIKRYNHYEMLWNSNFCDSLEPVDEAELKRQLLSWDVSHNKTPQNSSNKGGISKLMIMKSNGKSSSYRKLLENFKNDKFNRKGWMVMFRKDFARLIREAKMKIKTGSSDSSGSVGHSNDGDGVEKVQSDQGTEDQQMEKDQDTVINEDRVAGERNLPNEDSTDADLSRELMDLNEYSKDPPGNN
binds: [1] | [2] | [3]

B3: Bre1 (enzyme, UniProt Q07457 1-700)
chain: MTAEPATKKIKLELSDPSEPLTQSDVIAFQKEALFRCINRRRVDFEALRKQYELSRRECIDVSRKLANIMALIVTLARFIETFCTDANEKQLCREIAQGDETLIVQRSDSFMKLLTKYGKPNTTDSNTNSNASDHIQELTTELKNLRKSKEELFYENSQLTEEISALKEYYTNIIRKYDRDESFTIKRVFKEDKTDAVKELREDEKESNENNIKSGNKDSSAINGDNTSKKSEKGDELVQAEDERKEDAENEKLELDLKFSDLRAEINSLSSTIKDLENIRRENEEELIKTRSEVSNLKKQQIAAADQDPDFKSYDHESLLAKIQHLTEQNAELSEINSSFLSKFQVLAKEKEIYTKKVREEFQKSLDSLVEMNSSLEKDVVRIRTARDDLLSKIAILEAEKSKTEVLSDLQHAIDILKEQWTKIDQRSNDTKSSSTQDALIKEIQDLEKGFRELSDLTHKKYSEIINHESVISKLTVEKTKADQKYFAAMRSKDSILIEIKTLSKSLSKSNELILQLKDSDRLLQQKIGNLHKQLDLSQNNERRLIDSSKTETLKIIDLNNTSTKLKRSLEKLQEESNKSIADMTHLETKLNDTEIELKHFKQKASHLESKCEKLHDTLFRGNNKNKGSSDEALVEELANFRTLVYCSLCSKNWKNMAIKTCGHVFCENCCKERLAARMRKCPTCNKAFSSNDLLTVHL
binds: [1] | [2] | [3]

B4: GST-tagged Rad18 Rad6-binding region (amino acids 301-487) (domain or fragment, UniProt P10862 301-487)
chain: RQNMIKRYNHYEMLWNSNFCDSLEPVDEAELKRQLLSWDVSHNKTPQNSSNKGGISKLMIMKSNGKSSSYRKLLENFKNDKFNRKGWMVMFRKDFARLIREAKMKIKTGSSDSSGSVGHSNDGDGVEKVQSDQGTEDQQMEKDQDTVINEDRVAGERNLPNEDSTDADLSRELMDLNEYSKDPPGNN
binds: [4] | [5] | [6]
